No constants are given. Whether binding was seen depends on the method and setting. In cells and extracts the contact can be indirect. Some entries that bind do so weakly or less than the wild type. Where a sequence is shown, tags or fusion partners need not be part of it.
T1: Hsp22-3xFLAG (Drosophila) (UniProt P02515)
T1 sequence: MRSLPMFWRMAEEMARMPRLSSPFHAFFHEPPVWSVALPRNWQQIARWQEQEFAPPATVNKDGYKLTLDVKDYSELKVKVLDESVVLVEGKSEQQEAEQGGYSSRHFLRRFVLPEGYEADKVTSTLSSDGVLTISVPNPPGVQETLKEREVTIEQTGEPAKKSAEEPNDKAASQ


Biological target: T1, Hsp22-3xFLAG (Drosophila)
Assay: co-IP; S2 cells expressing Hsp22-3xFLAG (bait) and a 5xMyc-tagged prey from one pAc5-STABLE-neo plasmid (T2A); M2 anti-FLAG agarose beads; Western blot with anti-FLAG and anti-Myc

binding	Binder
binds	Fer1HCH-5xMyc (protein, UniProt Q7KRU8 20-205) DFKCSLAVPEITKDWVDMKDACIKGMRNQIQEEINASYQYLAMGAYFSRDTVNRPGFAEHFFKAAKEEREHGSKLVEYLSMRGQLTEGVSDLINVPTVAKQEWTDGAAALSDALDLEIKVTKSIRKLIQTCENKPYNHYHLVDYLTGVYLEEQLHGQRELAGKLTTLKKMMDTNGELGEFLFDKTL
binds	RFeSP-5xMyc (protein, UniProt Q9VQ29 36-230) AHTDLQVPDFSAYRRESVKDSRRRNDTAEERKAFSYLMVGAGAVGGAYAAKGLVNTFIGSMSASAEVLAMAKIEIKLSDIPEGKSVTFKWRGKPLFIRHRTAAEIETERNVPTSTLRDPEADDQRVIKPEWLVVIGVCTHLGCVPIANAGDWGGYYCPCHGSHYDASGRIRKGPAPLNLEVPTHEFPNEGLLVVG

— publication PMC12218971
